About 7,700 (2.3%) of roughly 330,000 compounds were called active. Inconclusive results, whose numbers are uncertain, are shown with a selection of clear calls. The call rests on the fitted dose curve; in most records, active means well fitted inhibition curve with a large enough effect; inconclusive means small, poorly fitted or top-dose-only effect, or effect the other way; inactive means flat fitted curve, though single readings scatter. Potencies of inconclusive entries are doubtful fits and often do not repeat.
Assay: qHTS screen for small molecules that inhibit ELG1-dependent DNA repair in human embryonic kidney (HEK293T) cells expressing luciferase-tagged ELG1; further: nearly all actives have a fitted effect of over 55% in size
Conditions: HEK293T ELG1-luciferase reporter, luminescence, 16 h, DNA damage induced by 5-fluorouridine; activity change, negative = inhibition: at 46.1 µM (top of the series)
Outline: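 Overnight (16 hr) co-exposure of 2,000 cells/well to 5-fluorouridine and compound at 37 °C preceded detection. Luciferase was quantified via ONE-Glo luminescence; loss of signal denotes inhibition.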
For `CCOc1ccc(C2c3cc(OC)c(OC)cc3CC(=O)N2c2ccc(OC)cc2)cc1` (stereo not drawn), the Potency was inconclusive: 3.66 µM [inhibitor, single point].
In the case of `COc1cc(OC)cc(C(=O)Nc2ccc3c(c2)CCCN3C(=O)c2cccs2)c1`, the Potency is reported as inconclusive: 25.9 µM [inhibitor, partial curve, poor fit].
With `COc1ccc(-c2cnnc(N/N=C/C(C)=C/c3ccccc3)n2)cc1` the Potency was inconclusive: 23.1 µM [activator, partial curve, poor fit].
In the case of `COc1ccc(-n2cc(-c3ccccc3)[nH]c2=S)c(OC)c1`, the Potency is reported as inconclusive: 20.6 µM [inhibitor, partial curve].
For `CCOC(=O)c1c(C)[nH]c(C(=O)OCc2csc(CC(=O)Nc3ccccc3C)n2)c1C`, the Potency was inconclusive: 9.2 µM [inhibitor, single point].
In the case of `O=C(COC(=O)CCN1C(=O)c2cccc([N+](=O)[O-])c2C1=O)NCc1ccccc1`, the “activity change, negative = inhibition” value is reported as inactive: 2.42%.
With `COc1ccc(C(C)=O)cc1CSc1nnc(Nc2ccccc2)s1` the Potency was active: 14.6 µM.
In the case of `Cc1ccc(C(=O)Nc2nccs2)s1`, the Potency is reported as inconclusive: 18.3 µM [activator, partial curve].
With `Cc1ccc(-c2noc(C3CCCN(C(=O)c4ccc(C(C)(C)C)cc4)C3)n2)o1` (stereo not drawn) the Potency was inconclusive: 29.1 µM [inhibitor, single point].
In the case of `NS(=O)(=O)c1ccc(CCNC(=O)CN2CCN(Cc3cccc(C(F)(F)F)c3)CC2)cc1`, the “activity change, negative = inhibition” value is reported as inactive: -24.9%.
In the case of `COc1ccc(CNC(=O)[C@H](Cc2ccccc2)NC(=O)C2CCN(C(=O)[C@H](C)N)CC2)cc1`, the Potency is reported as inconclusive: 0.103 µM [inhibitor, full curve, poor fit].
In the case of `O=C(c1cccc([N+](=O)[O-])c1)N1CCN(S(=O)(=O)/C=C/c2ccccc2)CC1`, the “activity change, negative = inhibition” value is reported as inactive: 5.07%.
For `O=C(Sc1ccc(Cl)cc1)c1cccc(Cn2cc(C(F)(F)F)ccc2=O)c1`, the “activity change, negative = inhibition” value was inactive: -7.33%.
For `FC(F)(F)c1cccc(CN2CCC(c3cc(-c4cccs4)n[nH]3)CC2)c1`, the Potency was inconclusive: 23.1 µM [inhibitor, partial curve].
In the case of `COc1ccc(-n2c(C)nc3c(cnn3-c3ccc(C)cc3)c2=O)cc1`, the Potency is reported as inconclusive: 18.3 µM [inhibitor, single point].
With `CCOc1ccccc1CNS(=O)(=O)c1ccc(-c2cnc(C3CC3)o2)cc1` the “activity change, negative = inhibition” value was inactive: -15.1%.
In the case of `CC(=O)N1CCC2(CC1)C/C(=N\NC(=S)Nc1ccccc1C)c1cc(O)ccc1O2`, the Potency is reported as inconclusive: 0.0326 µM [activator, single point].
In the case of `COc1ccc(CN(C)C(=O)COC(=O)c2cc([N+](=O)[O-])ccc2N2CCCC2)c(OC)c1OC`, the Potency is reported as active: 14.6 µM.
In the case of `CCc1c(C(=O)N/N=C/c2ccsc2)csc1C`, the Potency is reported as inconclusive: 18.4 µM [activator, single point].
With `CCN(CC)C(NC(=O)c1ccccc1)C(=O)c1ccccc1` (stereo not drawn) the Potency was inconclusive: 16.4 µM [activator, single point].
With `COCC1CCCCN1C(=O)c1ccc2oc(CCCc3ccccc3)nc2c1` (stereo not drawn) the Potency was inconclusive: 14.6 µM [activator, partial curve].
For `Cc1ccc(N(CC(=O)NC(C)(C)C)C(=O)CCC(=O)Nc2nccs2)c(C)c1`, the “activity change, negative = inhibition” value was inactive: -0.521%.
With `N#CC(C(=O)c1ccccc1)=C1SCCS1` the Potency was inconclusive: 16.4 µM [activator, partial curve].
In the case of `COc1ccc(C)cc1NC(=S)N1CCOCC1`, the Potency is reported as inconclusive: 0.0046 µM [inhibitor, full curve, poor fit].
In the case of `C[C@H](CO)N1C[C@H](C)[C@@H](CN(C)C(=O)Nc2ccc3c(c2)OCO3)Oc2ccc(NC(=O)CCN3CCOCC3)cc2C1=O`, the Potency is reported as inconclusive: 11.6 µM [activator, partial curve, poor fit].
With `O=C(COC(=O)c1ccc(S(=O)(=O)Nc2ccccc2)cc1)NCCC1=CCCCC1` the “activity change, negative = inhibition” value was inactive: 24.4%.
For `CCOC(=O)C1=C(c2ccccc2)NC(=S)NC1c1ccc(Cl)c([N+](=O)[O-])c1` (stereo not drawn), the Potency was inconclusive: 32.6 µM [inhibitor, single point].
For `O=C(CCCn1c(=O)c2ccccc2n(Cc2ccccc2)c1=O)NCc1ccco1`, the Potency was inconclusive: 18.4 µM [inhibitor, single point].
With `COC(=O)c1ccc(NC(=O)CSc2nccn2CCc2ccccc2)cc1` the Potency was inconclusive: 18.4 µM [activator, partial curve, poor fit].
In the case of `O=c1c2ccccc2nc(-c2ccccc2)n1Cc1ccccc1`, the Potency is reported as inconclusive: 20.6 µM [activator, partial curve].
In the case of `CC(=O)Nc1ccc(NC(=O)c2ccc(C3SCC(=O)N3CCc3ccccc3)cc2)cc1` (stereo not drawn), the Potency is reported as active: 23.1 µM.
With `O=C(COC(=O)c1cc([N+](=O)[O-])ccc1N1CCOCC1)c1ccc(F)cc1` the “activity change, negative = inhibition” value was inactive: -10.1%.
With `Cc1cc(Cl)ccc1OCc1nnc(-c2ccccc2C)o1` the Potency was inconclusive: 9.2 µM [activator, partial curve].
For `COc1ccc(S(=O)(=O)N2CCN(C(=O)c3ccco3)CC2)cc1C(C)(C)C`, the “activity change, negative = inhibition” value was inactive: -4.76%.
For `O=C1Nc2ccccc2C(=O)C1(Cl)Cc1ccccc1` (stereo not drawn), the “activity change, negative = inhibition” value was inactive: 2.7%.
With `CC(NC(=O)c1cccs1)c1nnc(SCc2ccc(Cl)cc2Cl)n1C` (stereo not drawn) the “activity change, negative = inhibition” value was inactive: -9.15%.
With `O=C(COc1ccccc1Br)Nc1ccc(S(=O)(=O)N2CCCC2)cc1` the Potency was inconclusive: 29.1 µM [inhibitor, single point].
For `O=C(CN1CCN(Cc2ccccc2)CC1)NNC(=O)c1ccccc1`, the “activity change, negative = inhibition” value was inactive: 6.87%.
In the case of `CSc1ncccc1C(=O)N1CCCC(CCC(=O)NCc2ccc(F)c(F)c2)C1` (stereo not drawn), the “activity change, negative = inhibition” value is reported as inactive: 4.79%.
For `CC(C)N(C1=N/C(=C\c2ccco2)C(=O)N1c1ccccc1)C(C)C`, the “activity change, negative = inhibition” value was inactive: -4.52%.
In the case of `CN(N)c1nc2ccccc2nc1C(F)(F)F`, the “activity change, negative = inhibition” value is reported as inactive: 2.15%.
In the case of `Cc1ccccc1CSCC(=O)c1c(N)n(C)c(=O)n(C)c1=O`, the “activity change, negative = inhibition” value is reported as inactive: 4.37%.
In the case of `COc1cccc(-c2c(-c3cc(OC)cc(OC)c3)n(C)c3ccc(-c4cnc(OC)nc4)cc23)c1`, the Potency is reported as inconclusive: 4.61 µM [inhibitor, full curve].
In the case of `COc1cccc(C2C(C(N)=O)=C(C)Nc3nc(-c4cccc(Cl)c4)nn32)c1` (stereo not drawn), the Potency is reported as inconclusive: 29.1 µM [activator, single point].
For `O=C(Cn1ccnc1)c1ccc(O)c(O)c1`, the “activity change, negative = inhibition” value was inactive: 17.8%.
With `COc1ccc(S(=O)(=O)NCc2ccncc2)cc1NC(=O)c1ccccc1` the “activity change, negative = inhibition” value was inactive: -23.3%.
With `CC(=O)Nc1ccc(N/C=C/C(=O)c2ccccc2)cc1` the Potency was inconclusive: 11.6 µM [activator, partial curve].
In the case of `O=C(NC(=S)Nc1cccc2ncccc12)c1ccco1`, the “activity change, negative = inhibition” value is reported as inactive: -12.7%.
With `CCC1(c2ccc(Cl)cc2)NC(=S)N(c2ccc(C)c(C)c2)N1` (stereo not drawn) the “activity change, negative = inhibition” value was inactive: 12.1%.
For `O=C(C1=C[C@@H](c2csc3ccccc23)C[C@@H](OCc2ccc(CO)cc2)O1)N1CCN(Cc2ccc3c(c2)OCO3)CC1`, the Potency was active: 9.2 µM.
With `Cc1cc(S(=O)(=O)N2CCN(c3ccccn3)CC2)ccc1F` the Potency was inconclusive: 8.2 µM [inhibitor, partial curve].
In the case of `CCOC(=O)CSc1nc2cc3c(cc2cc1C#N)OCCO3`, the Potency is reported as inconclusive: 1.03 µM [activator, full curve].
With `COc1ccc(C=C2c3ccccc3C(=O)c3ccccc32)c(OC)c1` the Potency was active: 23.1 µM.
In the case of `CC(=O)c1c(C)[nH]c(C(=O)N2c3ccccc3CC2C)c1C` (stereo not drawn), the Potency is reported as inconclusive: 16.4 µM [activator, single point].
With `COc1ccc(-c2onc(C)c2C)cc1S(=O)(=O)NCCc1ccco1` the Potency was inconclusive: 23.1 µM [inhibitor, single point].
For `Cc1ccc(CNc2nc(C)cs2)cc1`, the Potency was inconclusive: 9.2 µM [activator, partial curve].
With `Cc1cc(=O)c(C(=O)Nc2cccc(C(=O)NC3CC3)c2)nn1-c1ccccc1Cl` the “activity change, negative = inhibition” value was inactive: 6.83%.
In the case of `O=C(CNC(=O)c1ccc(Br)cc1)NCc1cccnc1`, the “activity change, negative = inhibition” value is reported as inactive: 5.47%.
With `COc1ccccc1OCCCCCNCCO` the “activity change, negative = inhibition” value was inactive: 13.3%.
With `Cc1cc(C(=O)Cn2nc(C(=O)O)c3ccccc3c2=O)c(C)n1-c1ccc(OC(F)F)cc1` the Potency was inconclusive: 18.3 µM [inhibitor, single point].
With `CC(C)n1c(-c2ccccc2)nc(=S)c2c1CCCC2` the “activity change, negative = inhibition” value was inactive: -6.77%.
In the case of `COc1cccc(C(=O)N(C)Cc2c(C)nn(C3CCS(=O)(=O)C3)c2C)c1` (stereo not drawn), the “activity change, negative = inhibition” value is reported as inactive: 0.813%.
With `Cc1ccsc1/C=N/NC(=O)c1ccco1` the Potency was inconclusive: 14.6 µM [activator, partial curve].
With `N/C(=N\OC(=O)c1ccc(Cl)cc1Cl)c1ccc(Cl)cc1` the Potency was inconclusive: 0.82 µM [activator, full curve].
For `CCn1c(SCC(=O)NC2CCCCC2)nnc1-c1ccccn1`, the “activity change, negative = inhibition” value was inactive: -8.18%.
With `CC(O)C(=O)N/N=C/c1cccc2ccccc12` (stereo not drawn) the Potency was inconclusive: 16.4 µM [activator, partial curve, poor fit].
For `Cc1nc(NC(=O)c2ccc(Cl)cc2)nc2cc3c(cc12)OCO3`, the “activity change, negative = inhibition” value was inactive: -2.82%.
In the case of `O=C(Nc1ccc(Cl)c(Cl)c1)N1CCSCC1`, the Potency is reported as inconclusive: 7.31 µM [activator, partial curve].
With `COc1ccc(-c2cnc(SCC(=O)Nc3nc(C(C)(C)C)cs3)n2Cc2ccco2)cc1` the Potency was inconclusive: 23.1 µM [inhibitor, partial curve].
For `COc1cc(C(c2sc3nc(C)nn3c2O)N2CC(C)OC(C)C2)cc(OC)c1OC` (stereo not drawn), the Potency was inconclusive: 14.6 µM [activator, partial curve, poor fit].
In the case of `O=C(CNC(=O)c1ccc(Br)o1)Nc1cccc(S(=O)(=O)N2CCOCC2)c1`, the “activity change, negative = inhibition” value is reported as inactive: -0.0996%.
For `CCC(=O)c1ccc(N2CCN(S(=O)(=O)c3ccccc3)CC2)c(F)c1`, the “activity change, negative = inhibition” value was inactive: 12.9%.
With `Oc1ccc2ccccc2c1CNc1cnc2ccccc2c1` the Potency was inconclusive: 29.1 µM [activator, single point].

Reference: PubChem BioAssay AID504467 (National Center for Advancing Translational Sciences (NCATS), 2011)
On the % scale 0 is the no-effect control and ±100 the full control effect; potency means the concentration at half of the fitted maximal effect.
